Measured values: PubChem BioAssay AID1487 (National Center for Advancing Translational Sciences (NCATS), 2009)
Values joined by “and” are separate entries in the source; they are usually repeats but may differ in a detail not shown here. Equal entries are not always repeated. This is one part of the list. These are further read-outs of the screen, such as a control signal, another cell line or another target. No call is given for them. Most of these compounds were active or inconclusive in the main read-out, so they are no random draw. Potencies come from curve fits of mixed quality, noted in brackets.

Experiment: qHTS Assay for Modulators of Lamin A Splicing
Details: HeLa LMNA splicing GFP/RFP minigene ratio, 48 h
Outline: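 Read-out is the ratio of GFP to DsRed2 object intensity, acquired by 488 nm laser-scanning cytometry on HeLa lamin A-EGFP minigene reporter cells. Compound incubation 48 hrs at 37 °C in Opti-MEM with 2% FBS; DMSO 0.5% final.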

[1] = measured here: RFP viability control channel
[2] = measured here: GFP splicing reporter channel

In the case of `COc1ccc(-c2nnc(SCC(=O)Nc3ccc(C)c(Cl)c3)nc2-c2ccc(OC)c(OC)c2)cc1OC`, the AC50 [1] is reported as 35.5 µM [falling, single point].

With `Cc1ccc(-c2noc(C3CCCN(C(=O)c4ccc(F)cc4F)C3)n2)cc1` (centres undefined) the AC50 [1] was 35.5 µM [rising, single point].

With `O=c1c2ccccc2nc2n1C(CSCc1ccc(Cl)cc1)CS2` (centres undefined) the AC50 [1] was 12.6 µM [rising, partial curve].

For `CCN(CC)c1ccc(/C=N/Nc2nc3ccccc3[nH]2)c(O)c1`, the AC50 [1] was 35.5 µM [falling, single point].

For `Nc1nnc(SCc2coc(-c3ccc(Cl)cc3)n2)s1`, the AC50 [1] was 35.5 µM [rising, single point].

For `O=c1[nH]c(Cc2ccccc2Cl)nc2ccccc12`, the AC50 [1] was 2.82 µM [falling, partial curve, poor fit].

In the case of `CCOc1ccc2c(C)nc(NC3=NC(C)(C)C=C(C)N3)nc2c1`, the AC50 [1] is reported as 17.8 µM [rising, single point].

In the case of `CC(=O)Oc1cc2c(c(C)c1OC(C)=O)CC=C1[C@]3(C)CC[C@]4(C)CC[C@@](C)(C(=O)O)CC4[C@]3(C)CC[C@]12C` (some centres undefined), the AC50 [2] is reported as 6.31 µM [falling, full curve] and the AC50 [1] is reported as 5.62 µM [falling, full curve].

For `Cc1cc(C)c(NC(=S)NC(NC(=O)c2ccccc2)C(Cl)(Cl)Cl)c(C)c1` (centres undefined), the AC50 [1] was 12.6 µM [rising, partial curve].

In the case of `COC(=O)c1[nH]c2cccc(Cl)c2c1NC(=O)CN1CCCCC1C` (centres undefined), the AC50 [1] is reported as 10 µM [rising, single point].

For `COc1ccccc1NC(=O)CCNS(=O)(=O)c1ccc2c(c1)CCN2C(=O)C1CC1`, the AC50 [2] was 10 µM [falling, partial curve] and the AC50 [1] was 11.2 µM [falling, partial curve].

For `Cc1ccc(C(=O)N2CCCC(CCC(=O)N3CCN(c4ccccn4)CC3)C2)s1` (centres undefined), the AC50 [2] was 0.891 µM [falling, partial curve, poor fit].

With `CCOC(=O)N1CCN(S(=O)(=O)c2ccc(C(=O)Nc3nc4ccc(F)cc4s3)cc2)CC1` the AC50 [1] was 35.5 µM [falling, single point].

For `CCN(Cc1ccccc1)S(=O)(=O)c1ccc(C(=O)Nc2nnc(C3CC3)o2)cc1`, the AC50 [1] was 10 µM [rising, partial curve].

With `COc1ccc(C2=CC(c3ccc(OC)c(OC)c3)n3nnnc3N2)c(OC)c1` (centres undefined) the AC50 [1] was 12.6 µM [rising, partial curve].

With `CCOC(=O)Cc1cnc(NC(=O)CSc2nc3ncnc(N)c3[nH]2)s1` the AC50 [2] was 35.5 µM [rising, partial curve, poor fit] and the AC50 [1] was 31.6 µM [rising, partial curve].

In the case of `CCOC(=O)C1=C(NC(=S)NC(=O)c2ccccc2)c2ccccc2CC1C(C)C` (centres undefined), the AC50 [1] is reported as 3.98 µM [rising, full curve].

For `O=C(CSc1nnc(NC(=O)c2ccc3c(c2)OCO3)s1)NCc1ccco1`, the AC50 [2] was 0.00316 µM [rising, full curve, poor fit].

With `CCOc1ccc(-c2nc(C#N)c(N3CCN(Cc4ccccc4)CC3)o2)cc1` the AC50 [1] was 35.5 µM [rising, single point].

In the case of `Cc1ccc(CNC(=O)/C=C/c2cccs2)cc1`, the AC50 [2] is reported as 11.2 µM [rising, partial curve] and the AC50 [1] is reported as 14.1 µM [rising, single point].

With `Cc1ccc(C2CC(=O)NC(SCc3ccccc3)=C2C#N)cc1` (centres undefined) the AC50 [1] was 15.8 µM [rising, single point].

For `CCCS(=O)(=O)N1CCC(Cc2ccc(OC)cc2)(C(=O)OCC)CC1`, the AC50 [1] was 0.00501 µM [falling, full curve, poor fit].

For `CCn1c(CN2CCCCC2)nc2cc(NC(=O)COc3ccc(C(C)(C)C)cc3)ccc21`, the AC50 [2] was 3.55 µM [falling, partial curve, poor fit] and the AC50 [1] was 0.0355 µM [falling, full curve, poor fit].

In the case of `O=c1c(Cc2ccc(Cl)cc2Cl)c(O)ccn1Cc1ccc(Cl)cc1`, the AC50 [1] is reported as 17.8 µM [rising, single point].

In the case of `Cc1n[nH]c(C)c1S(=O)(=O)N1CCc2ccccc21`, the AC50 [2] is reported as 10 µM [falling, partial curve] and the AC50 [1] is reported as 10 µM [falling, partial curve].

With `Oc1c(CN2CCCCC2)cc(COCc2ccccc2)c2cccnc12` the AC50 [1] was 17.8 µM [rising, single point].

In the case of `O=C(COC(=O)c1ccccc1[N+](=O)[O-])c1ccc(C2CCCCC2)cc1`, the AC50 [2] is reported as 10 µM [falling, single point] and the AC50 [1] is reported as 20 µM [falling, partial curve, poor fit].

For `Cc1ccc(S(=O)(=O)NCCSc2nnnn2-c2ccccc2)cc1`, the AC50 [1] was 10 µM [rising, single point].

With `CSCC[C@H](NC(=O)C(C)Oc1ccc(Cl)cc1)c1nc2ccccc2[nH]1` (some centres undefined) the AC50 [1] was 35.5 µM [rising, single point].

For `CC(=O)N1CCN(C(=O)CC2OC(=O)c3ccccc32)CC1` (centres undefined), the AC50 [2] was 15.8 µM [falling, single point] and the AC50 [1] was 25.1 µM [falling, single point].

For `COC(=O)[C@@H]1[C@@H](C)N(CCc2cc(OC)c(OC)c(OC)c2)C(=O)N[C@H]1c1ccccc1`, the AC50 [1] was 0.316 µM [falling, partial curve].

With `C[C@H]1O[C@@H](O[C@H]2[C@@H](O)C[C@H](O[C@H]3[C@@H](O)C[C@H](O[C@H]4CC[C@@]5(C)[C@H](CC[C@@H]6[C@@H]5C[C@@H](O)[C@]5(C)[C@@H](C7=CC(=O)OC7)CC[C@]65O)C4)O[C@@H]3C)O[C@@H]2C)C[C@H](O)[C@@H]1O` the AC50 [2] was 15.8 µM [rising, single point] and the AC50 [1] was 562 nM [rising, full curve] and 4.47 µM [rising, full curve, poor fit].

In the case of `CCOc1ccc(-c2[nH]ncc2Oc2ccccc2OCC)c(O)c1`, the AC50 [2] is reported as 31.6 µM [rising, single point] and the AC50 [1] is reported as 35.5 µM [rising, single point].

In the case of `CCn1c(C(=O)N2CCC(Cc3ccccc3)CC2)cc2sccc21`, the AC50 [2] is reported as 15.8 µM [rising, single point].

With `Cn1c(=O)c2nc3ccccc3nc2n(C)c1=O` the AC50 [2] was 0.02 µM [falling, full curve, poor fit].

In the case of `COc1ccccc1N=C(C)C1=C(O)CSC1=O`, the AC50 [2] is reported as 3.55 µM [falling, single point] and the AC50 [1] is reported as 3.16 µM [falling, single point].

For `Cc1ccsc1/C=N/NC(=O)c1ccc(Cn2cc(Br)cn2)o1`, the AC50 [2] was 11.2 µM [rising, partial curve] and the AC50 [1] was 11.2 µM [rising, partial curve].

For `C=CCOCCN(C)C1=NS(=O)(=O)c2ccccc21`, the AC50 [1] was 0.794 µM [falling, full curve, poor fit].

For `Cc1ccc(S(=O)(=O)/N=C(\N)Nc2nc(C)c3ccccc3n2)cc1`, the AC50 [1] was 31.6 µM [rising, single point].

In the case of `Cc1cnc(CNc2ncncc2-c2c(C)noc2C)cn1`, the AC50 [2] is reported as 35.5 µM [falling, single point] and the AC50 [1] is reported as 35.5 µM [falling, single point].

In the case of `CCOC(=O)c1c(NC(=O)CSc2nnc(-c3c[nH]c4ccccc34)n2CCOC)sc2c1CCCC2`, the AC50 [2] is reported as 15.8 µM [rising, single point].

With `Cc1nn(-c2ccccc2)c2c1C(c1ccc([N+](=O)[O-])cc1)N1C(=N2)C(=O)Nc2ccccc21` (centres undefined) the AC50 [1] was 15.8 µM [rising, partial curve].

With `Cc1oc(-c2cccc(Br)c2)nc1Cn1c(SCc2cccc(F)c2)nc2cccnc21` the AC50 [1] was 11.2 µM [rising, single point].

With `COc1cccc(C(C)NC(=S)NCc2ccc(Cl)cc2)c1` (centres undefined) the AC50 [1] was 0.282 µM [rising, partial curve, poor fit].

With `CN(C)CCNC(=O)/C(=C/c1ccc(-c2ccc(Cl)cc2Cl)o1)NC(=O)c1ccccc1` the AC50 [2] was 5.01 µM [rising, single point] and the AC50 [1] was 35.5 µM [falling, single point].

In the case of `Cc1nn(Cc2ccccc2)c(Cl)c1C(=O)OCc1nnc(-c2ccc(Cl)cc2)o1`, the AC50 [2] is reported as 15.8 µM [rising, single point] and the AC50 [1] is reported as 15.8 µM [rising, single point].

For `COc1cc2[nH]c(=S)nc(NC3CCCC3)c2cc1OC`, the AC50 [1] was 4.47 µM [rising, single point].

With `CSCCC(NS(=O)(=O)c1ccc2ccccc2c1)C(=O)OCC(=O)c1ccc(C(C)C)cc1` (centres undefined) the AC50 [2] was 35.5 µM [rising, single point] and the AC50 [1] was 35.5 µM [rising, single point].

In the case of `COc1ccc(C)cc1NC(=O)CSc1nnc(COc2ccc(C)cc2)n1Cc1ccco1`, the AC50 [2] is reported as 11.2 µM [rising, single point] and the AC50 [1] is reported as 14.1 µM [rising, partial curve].

In the case of `O=C(CCCC(=O)OCC1CCCO1)OCC1CCCO1` (centres undefined), the AC50 [2] is reported as 31.6 µM [rising, partial curve, poor fit].

With `CSCCOC(=O)C1=C(C)NC(=O)CC1c1ccccc1Cl` (centres undefined) the AC50 [2] was 10 µM [rising, partial curve] and the AC50 [1] was 14.1 µM [rising, partial curve].

With `CCCCc1c(C)c2ccc(OC)c(/C(C)=N\O)c2oc1=O` the AC50 [1] was 31.6 µM [rising, single point].

With `Cc1[nH]nc(SCC(=O)NCc2ccc(F)cc2)c1[N+](=O)[O-]` the AC50 [2] was 1.26 µM [falling, single point] and the AC50 [1] was 4.47 µM [rising, single point].

For `O=C(CCc1ccc(S(=O)(=O)NCCc2ccccc2)cc1)N1CCN(Cc2ccc3c(c2)OCO3)CC1`, the AC50 [2] was 17.8 µM [rising, single point] and the AC50 [1] was 14.1 µM [rising, single point].
